Test results published in US20220152251A1, “Non-Aqueous PS/ICP Systems And Application To Surfaces” (Mi2 Holdings LLC, priority 2020, published 2022).
At least one structure is not confirmed: it was looked up by name or label, or the drawing left a doubt.

Experiment: Absorption characteristics of photosensitizers with peak absorption in visible light
Assay type: physicochemical
Details: determined in water (MB, NMB, Ce6)

In the case of `C=Cc1c(C)c2cc3nc(c(CC(=O)O)c4[nH]c(cc5nc(cc1[nH]2)C(C)=C5CC)c(C)c4C(=O)O)[C@@H](CCC(=O)O)[C@@H]3C` [Chlorin e6], the Epsilon is reported as 150,000/30,000.
